Source: PubChem BioAssay AID1347423 (Functional Genomics Laboratory (NCATS/FGL), 2020)
Screen size: about 52,000 sequences; about 210 (0.4%) were called active.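 The calls were made as follows: active = gene whose silencing raises cell survival under the drug, median off-target-corrected z-score across its silencing RNAs 2 or more; inactive = the rest.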 This is one part of the list.

Test: Resistance to Poly (ADP-Ribose) Polymerase inhibitor: Gene Identification via Genome-wide siRNA Screen
Conditions: mouse BRCA2 R2336H ES cells, olaparib, CellTiter-Glo viability; hits give high values
Outline: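 Genome-wide siRNA screen (3 siRNAs/gene, 20 nM) in mouse ES cells carrying hypomorphic BRCA2 R2336H; olaparib 500 nM added 48 h post-transfection, CellTiter-Glo viability 72 h later. Normalized to plate-median negative control; MAD z-scores, gene median, seed-adjusted.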

| Sequence | z-score |
| --- | --- |
| GGGUGUUGACAGCUGUAAATT against C1sb | inactive: -0.716 |
| GUAUGCUGUGAGCCUUGUCTT against Sprr2b | inactive: -2.19 |
| GCUCUCCUUGCACUUUACATT against Syt4 | inactive: 1.86 |
| GGCUACUUUCUGAAUUUUCTT against Ror2 | inactive: 1.08 |
| GGGACCUUUUCAGGACCUUTT against Ucp2 | inactive: 0.798 |
| GGAGGAGGGAUCACAAGAATT against Mrpl23 | inactive: -2.31 |
| CCCUUUCGUUCUUUACUUUTT against Olfr506 | inactive: 1.07 |
| GGCAGAUUCAGAAUUGUCUTT against Il17 | inactive: -1.04 |
| GGAGGGAAUGAAAAGUCAATT against Stard7 | inactive: -0.342 |
| CCUGAAGUUUGACUGUUUATT against Adam30 | inactive: -0.964 |
| GGCAAUGGCACUGAAGUCATT against Olfr994 | inactive: 1.39 |
| GCGGCUUAAAGACCUGUUGTT against Sdhc | inactive: -1.13 |
| GCCACGACACGAUGACAUATT against A330045H12Rik | inactive: -0.0169 |
| GGUAAUCCGAGCCAACAUUTT against Gpt2 | inactive: -0.846 |
| GGCAGUGUACAUCUGGAUATT against Olfr611 | inactive: 0.716 |
| GGUGGUAAAUAAUUAAGGATT against 1200003C23Rik | inactive: 0.171 |
| GGUGGAGCAGAUGAAGAACTT against 1500019G21Rik | inactive: 0.329 |
| GGCUCACAUUGUAACUUAGTT against 4833428E21Rik | inactive: 1.16 |
| GGCAUGAACCAUUCAGUAATT against Ifnar1 | inactive: -1.77 |
| GGUUACUGGGUGAUAAGAATT against Mipep | inactive: 1.1 |
| CCACAAUCUGUUAACUUUGTT against Serpinb10 | inactive: 0.163 |
| GGAGUUUGAGACACUCUGCTT against Apg4d | inactive: 0.266 |

| Sequence | z-score |
| --- | --- |
| GGAAAUUCACACAGAUGAATT against Pip3ap | inactive: 2.21 |
| GGGAAAGGUGUUCCAGUUATT against Chchd7 | inactive: -1.85 |
| CGGACAAGAUAAAGUGUGUTT against 4930504O13Rik | inactive: 0.5 |
| GGACUGCACAGUUAUGGUGTT against Coro1a | inactive: 1.2 |
| GGAAAGAUUCCGAACAAUUTT against Rab8b | inactive: -1.25 |
| GGCAAGAGUGAAUUUAAGATT against Nt5e | inactive: -0.341 |
| GGAUGAGAGAAAGUUACCCTT against Bzrpl1 | inactive: 1.79 |
| GGCCUCUUACAAAGUGAGATT against 2610524B01Rik | inactive: -0.53 |
| GGCUAGCACCAAAUUCUUGTT against Fbxo40 | inactive: -0.741 |
| GCAAAUGACUUGCCCAAAUTT against Zfp639 | inactive: -2.39 |
| GGCUCUCUUUAGAACAGACTT against Rad17 | inactive: -0.663 |
| GGAUCUCCGCUCAUCAGAUTT against Slc14a2 | inactive: 1.21 |
| GAAGAGUCCAACAACCAAATT against Mrpl53 | inactive: -0.149 |
| GCAUCAUCGAAUAAUCAUCTT against Egf | inactive: 1.65 |
| CGGAGCUCAAACAUCUGAUTT against 1810035L17Rik | inactive: -2.28 |
| GGAGAAAUGCCAUUGCGUCTT against Wnt3 | inactive: -0.218 |
| CCCACUUACUUUUGAUGUUTT against Ube1x | inactive: -3.41 |
| GCUUAAUCCGGCUACCACUTT against Sepn1 | inactive: -0.555 |
| CCUCAAGUUUGCCAUCAGGTT against Hps4 | inactive: 1.94 |
| GCCAGUCAGAUGUACAGUCTT against Pbx1 | inactive: -1.09 |
| GCGAAAUCAACAGUCAAUUTT against A730011L11 | inactive: 0.258 |
| CCAGAUGUGAUCUUAAAACTT against Zfp334 | inactive: -0.303 |

| Sequence | z-score |
| --- | --- |
| GCUGGUUAAGUCCUAUCACTT against Klrk1 | inactive: 1.43 |
| GGACAAUAAUGACAACAAATT against D230019K20Rik | inactive: 1.38 |
| GCUCCUAUGGCAACAUCGUTT against Olfr303 | inactive: 0.615 |
| CCCGGGUCAUCAUUUUAAUTT against B830017H08Rik | inactive: -0.175 |
| GGUUGACAACACAUCUGCUTT against AI788959 | inactive: 0.559 |
| CCACUGCUGUUAGGCUUGATT against Olfr810 | inactive: -2.58 |
| GGUGGAAAGCAAGAAACACTT against Siat8f | inactive: -0.842 |
| GGCAGACGGUAAUAAACAUTT against AI507211 | inactive: 1.51 |
| CGAAUAUCAAAGGAUACUUTT against 0610041E09Rik | inactive: -0.433 |
| CGUUCUUUCAAGAAAGCAATT against 1110014K08Rik | inactive: -0.951 |
| CCAGCAGAUAUUCUUACGGTT against Grb2 | inactive: 3.42 |
| GCAGUCAAUGAACAUGUUGTT against 2900064A13Rik | inactive: 0.26 |
| GGAAGAAGAUGAAGACAUUTT against Trp53inp1 | inactive: -1.3 |
| GGAAAACCGAGAAAAAAUGTT against Xpa | inactive: -0.463 |
| GGACAUCUACACCAUUUGGTT against 2810021B07Rik | inactive: -1.09 |
| GGAACAAUGCCAGAAGUGUTT against 2510004L20Rik | inactive: -0.866 |
| CGGCGACACCAUAAUUUGGTT against Il1r1 | inactive: -1.15 |
| CCGAGCACUCACUGUUUUATT against Ryr3 | inactive: 0.234 |
| GGAGGAAGAUGGUCAUUCCTT against Ncoa6ip | inactive: -0.808 |
| CCUAUAUGCGCUAUUUGAATT against 4732465J09Rik | inactive: 0.557 |
| GCCGAGAAUGCUGAGUUCATT against Hmox1 | inactive: -0.0262 |
| CCUACGACUUCUACUACAUTT against Chst8 | inactive: -0.825 |

As entered above:
GGUUGACAACACAUCUGCUTT against AI788959 | z-score: inactive: 0.559
CCUAUAUGCGCUAUUUGAATT against 4732465J09Rik | z-score: inactive: 0.557

A run of entries taken from the entries so far:

| Sequence | z-score |
| --- | --- |
| CCCGGGUCAUCAUUUUAAUTT against B830017H08Rik | inactive: -0.175 |
| GGUUGACAACACAUCUGCUTT against AI788959 | inactive: 0.559 |
| CCACUGCUGUUAGGCUUGATT against Olfr810 | inactive: -2.58 |
| GGUGGAAAGCAAGAAACACTT against Siat8f | inactive: -0.842 |
